Measurements: article PMC10297930
Results are given in words; binding and its absence hold for the method and conditions named. Binding seen in cells or lysates may run through a third protein. A yes stands for co-enrichment or nearness to the bait. Other partners may have been found. Sequences can lack the tags named with a protein.

Protein sequences, listed by entry. Tags and fused reporters are not part of them.
UniProt Q15717: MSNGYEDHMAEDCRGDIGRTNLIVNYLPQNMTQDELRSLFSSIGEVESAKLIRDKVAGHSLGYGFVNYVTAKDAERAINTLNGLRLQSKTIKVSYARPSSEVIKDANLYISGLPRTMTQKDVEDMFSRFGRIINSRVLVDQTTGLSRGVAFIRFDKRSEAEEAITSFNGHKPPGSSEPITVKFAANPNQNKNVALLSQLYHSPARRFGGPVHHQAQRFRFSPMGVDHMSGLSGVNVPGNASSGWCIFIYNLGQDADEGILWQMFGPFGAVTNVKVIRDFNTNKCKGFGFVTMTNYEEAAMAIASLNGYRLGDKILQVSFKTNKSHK
UniProt Q14258: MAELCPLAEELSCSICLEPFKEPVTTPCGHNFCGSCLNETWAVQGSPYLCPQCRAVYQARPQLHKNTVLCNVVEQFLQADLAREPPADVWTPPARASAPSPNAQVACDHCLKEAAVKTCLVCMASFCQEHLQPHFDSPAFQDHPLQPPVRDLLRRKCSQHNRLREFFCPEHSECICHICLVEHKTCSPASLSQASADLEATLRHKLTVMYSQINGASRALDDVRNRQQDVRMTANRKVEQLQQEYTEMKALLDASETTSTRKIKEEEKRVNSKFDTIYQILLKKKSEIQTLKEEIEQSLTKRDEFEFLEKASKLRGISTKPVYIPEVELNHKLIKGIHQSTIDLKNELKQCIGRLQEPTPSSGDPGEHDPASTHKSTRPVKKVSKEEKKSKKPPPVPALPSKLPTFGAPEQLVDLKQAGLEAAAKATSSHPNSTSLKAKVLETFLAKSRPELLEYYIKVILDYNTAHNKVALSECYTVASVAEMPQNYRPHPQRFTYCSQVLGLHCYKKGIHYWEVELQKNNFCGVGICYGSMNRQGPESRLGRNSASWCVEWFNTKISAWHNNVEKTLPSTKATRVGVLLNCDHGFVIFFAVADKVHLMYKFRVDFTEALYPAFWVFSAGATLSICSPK
UniProt P51532: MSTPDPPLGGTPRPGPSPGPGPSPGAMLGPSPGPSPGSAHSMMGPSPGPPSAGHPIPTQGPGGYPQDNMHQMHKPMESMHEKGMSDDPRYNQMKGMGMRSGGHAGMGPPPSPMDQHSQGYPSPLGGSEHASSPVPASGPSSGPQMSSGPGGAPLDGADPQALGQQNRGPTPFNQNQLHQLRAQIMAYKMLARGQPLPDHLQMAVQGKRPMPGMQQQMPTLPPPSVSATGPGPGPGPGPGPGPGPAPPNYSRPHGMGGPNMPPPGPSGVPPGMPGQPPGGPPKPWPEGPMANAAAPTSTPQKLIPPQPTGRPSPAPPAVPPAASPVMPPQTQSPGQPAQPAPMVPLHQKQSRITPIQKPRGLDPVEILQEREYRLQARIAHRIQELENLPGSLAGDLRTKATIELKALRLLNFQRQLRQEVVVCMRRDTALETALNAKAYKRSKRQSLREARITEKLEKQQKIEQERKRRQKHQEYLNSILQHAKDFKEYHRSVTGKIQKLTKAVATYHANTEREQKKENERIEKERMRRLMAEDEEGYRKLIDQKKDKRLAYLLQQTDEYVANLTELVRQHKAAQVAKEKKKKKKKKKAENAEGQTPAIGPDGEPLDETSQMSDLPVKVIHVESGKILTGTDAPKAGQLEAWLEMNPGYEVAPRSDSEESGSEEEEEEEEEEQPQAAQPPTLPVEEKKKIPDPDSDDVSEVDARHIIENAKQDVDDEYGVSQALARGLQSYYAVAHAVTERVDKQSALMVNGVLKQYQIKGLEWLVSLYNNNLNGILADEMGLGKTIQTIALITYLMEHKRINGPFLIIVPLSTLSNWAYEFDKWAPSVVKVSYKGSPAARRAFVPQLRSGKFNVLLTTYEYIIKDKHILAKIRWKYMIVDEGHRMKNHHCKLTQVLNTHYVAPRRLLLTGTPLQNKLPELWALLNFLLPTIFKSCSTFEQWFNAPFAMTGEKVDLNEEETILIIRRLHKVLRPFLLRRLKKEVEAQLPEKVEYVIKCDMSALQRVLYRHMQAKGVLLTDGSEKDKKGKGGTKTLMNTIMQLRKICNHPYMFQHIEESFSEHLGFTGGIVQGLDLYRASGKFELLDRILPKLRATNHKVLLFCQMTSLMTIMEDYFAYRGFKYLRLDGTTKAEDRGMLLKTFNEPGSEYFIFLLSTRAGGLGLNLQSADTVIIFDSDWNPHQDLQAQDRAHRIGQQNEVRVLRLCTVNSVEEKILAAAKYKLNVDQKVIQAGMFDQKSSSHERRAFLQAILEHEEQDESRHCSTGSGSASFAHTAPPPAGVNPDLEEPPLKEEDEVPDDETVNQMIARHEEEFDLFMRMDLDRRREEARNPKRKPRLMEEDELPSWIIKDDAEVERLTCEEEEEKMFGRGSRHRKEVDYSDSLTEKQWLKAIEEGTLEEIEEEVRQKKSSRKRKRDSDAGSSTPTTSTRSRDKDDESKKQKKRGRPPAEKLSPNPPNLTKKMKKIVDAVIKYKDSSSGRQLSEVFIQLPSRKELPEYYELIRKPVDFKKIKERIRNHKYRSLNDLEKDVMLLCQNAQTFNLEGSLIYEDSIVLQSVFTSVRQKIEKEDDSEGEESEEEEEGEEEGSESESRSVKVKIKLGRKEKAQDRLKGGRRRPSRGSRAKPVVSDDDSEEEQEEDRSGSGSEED
UniProt Q8TAQ2: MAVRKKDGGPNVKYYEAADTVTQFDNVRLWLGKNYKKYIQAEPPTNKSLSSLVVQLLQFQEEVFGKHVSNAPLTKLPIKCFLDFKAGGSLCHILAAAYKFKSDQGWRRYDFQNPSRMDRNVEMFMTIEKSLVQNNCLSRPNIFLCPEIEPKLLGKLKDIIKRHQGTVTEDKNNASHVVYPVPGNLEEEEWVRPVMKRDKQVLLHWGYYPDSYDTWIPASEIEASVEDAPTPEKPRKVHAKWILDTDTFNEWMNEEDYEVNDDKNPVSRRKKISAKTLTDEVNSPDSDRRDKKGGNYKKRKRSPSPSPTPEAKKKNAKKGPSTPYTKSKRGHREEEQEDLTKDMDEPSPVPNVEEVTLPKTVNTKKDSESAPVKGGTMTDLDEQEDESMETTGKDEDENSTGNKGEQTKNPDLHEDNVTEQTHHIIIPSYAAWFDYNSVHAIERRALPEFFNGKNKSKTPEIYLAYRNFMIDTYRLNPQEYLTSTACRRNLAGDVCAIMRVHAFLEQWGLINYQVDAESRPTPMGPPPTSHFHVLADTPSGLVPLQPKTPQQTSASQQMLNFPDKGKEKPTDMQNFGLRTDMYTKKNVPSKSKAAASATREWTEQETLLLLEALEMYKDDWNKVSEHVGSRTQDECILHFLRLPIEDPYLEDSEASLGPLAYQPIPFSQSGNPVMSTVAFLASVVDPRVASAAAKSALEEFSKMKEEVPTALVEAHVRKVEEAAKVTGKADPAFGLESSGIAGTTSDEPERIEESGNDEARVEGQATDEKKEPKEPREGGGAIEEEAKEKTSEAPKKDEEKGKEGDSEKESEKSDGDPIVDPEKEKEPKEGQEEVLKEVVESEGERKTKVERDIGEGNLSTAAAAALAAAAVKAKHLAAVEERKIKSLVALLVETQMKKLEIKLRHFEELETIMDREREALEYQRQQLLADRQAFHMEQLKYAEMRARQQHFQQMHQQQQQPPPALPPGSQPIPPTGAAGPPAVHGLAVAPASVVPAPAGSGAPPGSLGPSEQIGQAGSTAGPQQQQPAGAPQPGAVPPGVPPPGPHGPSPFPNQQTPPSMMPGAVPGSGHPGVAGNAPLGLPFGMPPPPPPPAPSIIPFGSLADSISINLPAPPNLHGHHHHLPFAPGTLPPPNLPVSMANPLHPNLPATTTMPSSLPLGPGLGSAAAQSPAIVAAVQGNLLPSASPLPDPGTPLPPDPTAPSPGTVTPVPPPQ
UniProt P51531: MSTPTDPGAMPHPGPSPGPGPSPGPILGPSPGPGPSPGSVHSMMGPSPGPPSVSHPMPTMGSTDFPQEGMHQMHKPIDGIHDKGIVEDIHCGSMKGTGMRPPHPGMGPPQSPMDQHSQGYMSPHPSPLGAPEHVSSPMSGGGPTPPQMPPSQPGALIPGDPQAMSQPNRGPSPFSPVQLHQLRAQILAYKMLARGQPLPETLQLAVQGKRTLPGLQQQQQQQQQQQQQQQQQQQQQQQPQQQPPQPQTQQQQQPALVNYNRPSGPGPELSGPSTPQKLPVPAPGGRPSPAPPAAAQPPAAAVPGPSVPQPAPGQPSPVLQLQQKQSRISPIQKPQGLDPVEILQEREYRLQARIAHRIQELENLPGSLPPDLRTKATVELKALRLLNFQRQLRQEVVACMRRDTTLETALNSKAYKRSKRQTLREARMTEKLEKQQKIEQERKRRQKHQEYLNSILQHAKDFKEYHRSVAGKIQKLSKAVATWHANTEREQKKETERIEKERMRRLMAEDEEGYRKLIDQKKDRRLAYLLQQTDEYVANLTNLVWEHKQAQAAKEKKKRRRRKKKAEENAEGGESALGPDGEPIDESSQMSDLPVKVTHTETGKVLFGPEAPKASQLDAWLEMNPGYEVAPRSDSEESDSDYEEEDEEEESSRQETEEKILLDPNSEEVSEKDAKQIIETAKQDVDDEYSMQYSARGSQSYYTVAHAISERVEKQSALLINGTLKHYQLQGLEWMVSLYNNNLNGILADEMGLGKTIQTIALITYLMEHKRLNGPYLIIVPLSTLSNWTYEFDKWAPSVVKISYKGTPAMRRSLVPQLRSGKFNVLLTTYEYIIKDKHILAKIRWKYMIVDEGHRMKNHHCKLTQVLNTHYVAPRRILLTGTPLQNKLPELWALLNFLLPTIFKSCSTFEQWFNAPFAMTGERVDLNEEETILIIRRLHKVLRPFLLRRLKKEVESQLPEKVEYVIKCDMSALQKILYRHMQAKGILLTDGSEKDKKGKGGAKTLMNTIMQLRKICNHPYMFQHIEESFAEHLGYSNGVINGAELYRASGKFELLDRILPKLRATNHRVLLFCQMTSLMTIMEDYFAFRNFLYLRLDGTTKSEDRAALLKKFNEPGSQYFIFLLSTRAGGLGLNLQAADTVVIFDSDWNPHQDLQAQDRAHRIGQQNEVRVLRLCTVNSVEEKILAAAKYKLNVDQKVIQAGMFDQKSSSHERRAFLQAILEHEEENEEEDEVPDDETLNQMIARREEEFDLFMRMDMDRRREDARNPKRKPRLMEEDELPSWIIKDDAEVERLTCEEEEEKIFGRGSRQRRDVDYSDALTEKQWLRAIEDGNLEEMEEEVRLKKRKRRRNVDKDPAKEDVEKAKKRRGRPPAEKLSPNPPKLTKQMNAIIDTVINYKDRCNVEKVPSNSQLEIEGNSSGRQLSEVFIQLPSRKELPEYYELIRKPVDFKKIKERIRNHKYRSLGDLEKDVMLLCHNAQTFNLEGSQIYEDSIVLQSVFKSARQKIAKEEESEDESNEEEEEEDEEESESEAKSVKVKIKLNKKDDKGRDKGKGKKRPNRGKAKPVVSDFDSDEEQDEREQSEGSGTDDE
UniProt Q9UPN9: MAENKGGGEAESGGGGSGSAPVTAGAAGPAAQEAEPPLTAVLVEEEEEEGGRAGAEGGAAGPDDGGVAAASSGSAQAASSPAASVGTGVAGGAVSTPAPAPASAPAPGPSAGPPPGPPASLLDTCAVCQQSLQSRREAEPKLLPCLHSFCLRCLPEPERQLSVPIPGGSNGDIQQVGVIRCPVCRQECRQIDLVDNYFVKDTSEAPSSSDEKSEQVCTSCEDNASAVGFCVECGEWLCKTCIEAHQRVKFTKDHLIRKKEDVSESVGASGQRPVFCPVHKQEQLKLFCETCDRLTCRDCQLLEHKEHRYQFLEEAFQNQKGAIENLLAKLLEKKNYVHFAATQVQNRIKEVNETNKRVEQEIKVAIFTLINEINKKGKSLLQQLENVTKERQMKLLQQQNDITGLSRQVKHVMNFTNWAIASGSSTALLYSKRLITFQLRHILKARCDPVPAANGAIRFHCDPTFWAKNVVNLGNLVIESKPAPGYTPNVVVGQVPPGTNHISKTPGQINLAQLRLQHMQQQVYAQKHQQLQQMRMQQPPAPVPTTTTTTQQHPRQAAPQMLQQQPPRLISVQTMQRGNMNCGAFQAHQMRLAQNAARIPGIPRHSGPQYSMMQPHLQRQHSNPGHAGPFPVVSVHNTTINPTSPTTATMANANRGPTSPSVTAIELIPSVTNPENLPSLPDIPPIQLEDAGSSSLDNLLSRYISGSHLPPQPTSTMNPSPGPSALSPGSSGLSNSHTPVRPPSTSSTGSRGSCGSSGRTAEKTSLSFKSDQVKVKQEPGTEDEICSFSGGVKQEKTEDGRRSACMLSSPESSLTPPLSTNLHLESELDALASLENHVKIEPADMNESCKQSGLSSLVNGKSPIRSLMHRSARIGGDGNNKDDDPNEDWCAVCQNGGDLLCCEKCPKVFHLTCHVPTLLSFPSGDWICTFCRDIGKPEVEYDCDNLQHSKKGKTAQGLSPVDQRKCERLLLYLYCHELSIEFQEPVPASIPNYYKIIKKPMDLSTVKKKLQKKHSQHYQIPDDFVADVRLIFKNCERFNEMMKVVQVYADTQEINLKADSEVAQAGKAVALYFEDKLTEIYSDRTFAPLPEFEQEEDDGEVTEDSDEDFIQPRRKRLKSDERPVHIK

T1: Zeb1/GFP fusion protein (UniProt P37275)
T1 sequence: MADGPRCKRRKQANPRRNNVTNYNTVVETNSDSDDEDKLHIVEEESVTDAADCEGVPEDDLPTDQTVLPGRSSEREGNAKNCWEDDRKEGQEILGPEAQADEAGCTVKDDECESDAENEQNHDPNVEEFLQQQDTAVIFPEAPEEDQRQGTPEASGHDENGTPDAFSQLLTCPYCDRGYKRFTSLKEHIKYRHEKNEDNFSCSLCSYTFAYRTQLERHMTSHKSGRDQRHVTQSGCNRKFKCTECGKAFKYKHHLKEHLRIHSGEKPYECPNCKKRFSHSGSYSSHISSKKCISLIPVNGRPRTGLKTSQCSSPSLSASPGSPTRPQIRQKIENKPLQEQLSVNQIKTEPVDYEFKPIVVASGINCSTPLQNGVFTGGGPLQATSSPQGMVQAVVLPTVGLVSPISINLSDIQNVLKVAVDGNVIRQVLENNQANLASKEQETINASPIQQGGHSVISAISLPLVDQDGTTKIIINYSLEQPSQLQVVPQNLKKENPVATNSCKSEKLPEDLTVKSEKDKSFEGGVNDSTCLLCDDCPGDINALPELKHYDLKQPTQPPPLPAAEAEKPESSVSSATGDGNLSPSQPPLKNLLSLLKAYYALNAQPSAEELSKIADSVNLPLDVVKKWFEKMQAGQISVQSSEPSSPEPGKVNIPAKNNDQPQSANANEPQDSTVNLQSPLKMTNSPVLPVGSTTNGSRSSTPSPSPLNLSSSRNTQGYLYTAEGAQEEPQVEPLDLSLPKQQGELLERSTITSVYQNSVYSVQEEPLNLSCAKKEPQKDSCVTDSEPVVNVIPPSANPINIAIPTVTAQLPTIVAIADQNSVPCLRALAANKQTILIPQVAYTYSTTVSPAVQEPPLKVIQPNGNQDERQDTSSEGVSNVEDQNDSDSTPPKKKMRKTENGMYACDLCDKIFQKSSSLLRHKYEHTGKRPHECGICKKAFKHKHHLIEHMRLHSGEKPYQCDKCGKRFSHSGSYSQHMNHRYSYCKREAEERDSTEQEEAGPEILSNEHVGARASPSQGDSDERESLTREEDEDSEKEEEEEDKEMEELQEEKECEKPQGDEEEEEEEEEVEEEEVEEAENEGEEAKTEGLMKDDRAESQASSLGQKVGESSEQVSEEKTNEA


Molecular target: T1, Zeb1/GFP fusion protein
Assay: affinity purification with mass spectrometry; Zeb1/GFP captured from MCF7 nuclear extracts on llama nano-antibodies against GFP immobilized on magnetic beads; washed 4 times with RIPA buffer; SDS-PAGE, in-gel trypsin digest, LC-MALDI TOF/TOF; doxycycline-induced cells, wt p53 or shp53, low or high SORE6-mCherry (Oct4/Sox2) reporter

| Molecule | binding |
| --- | --- |
| ELAV-like protein 1 (ELAVL1) (from UniProt Q15717 1-326) | binds |
| TRIM25 (from UniProt Q14258 1-630) | binds |
| X-ray repair cross-complementing protein 5 (XRCC5) (from UniProt P13010 1-732) | binds |
| SMARCC1 (from UniProt Q92922 1-1105) | binds |
| Desmoplakin (DSP) (from UniProt P15924 1-2871) | binds |
| CHD5 (from UniProt Q8TDI0 1-1954) | binds |
| SMARCA4 (BRG1) (from UniProt P51532 1-1647) | binds |
| SWI/SNF complex sub-unit SMARCC2 (SMARCC2) (from UniProt Q8TAQ2 1-1214) | binds |
| SMARCA2 (SNF2L2) (from UniProt P51531 1-1590) | binds |
| E3 ubiquitin-protein ligase TRIM33 (TRIM33) (from UniProt Q9UPN9 1-1127) | binds |
| C-terminal-binding protein 2 (CTBP2) (from UniProt P56545 1-445) | binds |
| Splicing factor 3B sub-unit 1 (SF3B1) (from UniProt O75533 1-1304) | binds |
| REST corepressor (human (endogenous in MCF-7)) | binds |
| Zinc finger transcription factor Trps1 (TRPS1) (protein, UniProt Q9UHF7 1-1281) MVRKKNPPLRNVASEGEGQILEPIGTESKVSGKNKEFSADQMSENTDQSDAAELNHKEEHSLHVQDPSSSSKKDLKSAVLSEKAGFNYESPSKGGNFPSFPHDEVTDRNMLAFSSPAAGGVCEPLKSPQRAEADDPQDMACTPSGDSLETKEDQKMSPKATEETGQAQSGQANCQGLSPVSVASKNPQVPSDGGVRLNKSKTDLLVNDNPDPAPLSPELQDFKCNICGYGYYGNDPTDLIKHFRKYHLGLHNRTRQDAELDSKILALHNMVQFSHSKDFQKVNRSVFSGVLQDINSSRPVLLNGTYDVQVTSGGTFIGIGRKTPDCQGNTKYFRCKFCNFTYMGNSSTELEQHFLQTHPNKIKASLPSSEVAKPSEKNSNKSIPALQSSDSGDLGKWQDKITVKAGDDTPVGYSVPIKPLDSSRQNGTEATSYYWCKFCSFSCESSSSLKLLEHYGKQHGAVQSGGLNPELNDKLSRGSVINQNDLAKSSEGETMTKTDKSSSGAKKKDFSSKGAEDNMVTSYNCQFCDFRYSKSHGPDVIVVGPLLRHYQQLHNIHKCTIKHCPFCPRGLCSPEKHLGEITYPFACRKSNCSHCALLLLHLSPGAAGSSRVKHQCHQCSFTTPDVDVLLFHYESVHESQASDVKQEANHLQGSDGQQSVKESKEHSCTKCDFITQVEEEISRHYRRAHSCYKCRQCSFTAADTQSLLEHFNTVHCQEQDITTANGEEDGHAISTIKEEPKIDFRVYNLLTPDSKMGEPVSESVVKREKLEEKDGLKEKVWTESSSDDLRNVTWRGADILRGSPSYTQASLGLLTPVSGTQEQTKTLRDSPNVEAAHLARPIYGLAVETKGFLQGAPAGGEKSGALPQQYPASGENKSKDESQSLLRRRRGSGVFCANCLTTKTSLWRKNANGGYVCNACGLYQKLHSTPRPLNIIKQNNGEQIIRRRTRKRLNPEALQAEQLNKQQRGSNEEQVNGSPLERRSEDHLTESHQREIPLPSLSKYEAQGSLTKSHSAQQPVLVSQTLDIHKRMQPLHIQIKSPQESTGDPGNSSSVSEGKGSSERGSPIEKYMRPAKHPNYSPPGSPIEKYQYPLFGLPFVHNDFQSEADWLRFWSKYKLSVPGNPHYLSHVPGLPNPCQNYVPYPTFNLPPHFSAVGSDNDIPLDLAIKHSRPGPTANGASKEKTKAPPNVKNEGPLNVVKTEKVDRSTQDELSTKCVHCGIVFLDEVMYALHMSCHGDSGPFQCSICQHLCTDKYDFTTHIQRGLHRNNAQVEKNGKPKE | binds |
| 2′-5′-oligoadenylatesynthase 3 (OAS3) (protein, UniProt Q9Y6K5 1-1087) MDLYSTPAAALDRFVARRLQPRKEFVEKARRALGALAAALRERGGRLGAAAPRVLKTVKGGSSGRGTALKGGCDSELVIFLDCFKSYVDQRARRAEILSEMRASLESWWQNPVPGLRLTFPEQSVPGALQFRLTSVDLEDWMDVSLVPAFNVLGQAGSGVKPKPQVYSTLLNSGCQGGEHAACFTELRRNFVNIRPAKLKNLILLVKHWYHQVCLQGLWKETLPPVYALELLTIFAWEQGCKKDAFSLAEGLRTVLGLIQQHQHLCVFWTVNYGFEDPAVGQFLQRQLKRPRPVILDPADPTWDLGNGAAWHWDLLAQEAASCYDHPCFLRGMGDPVQSWKGPGLPRAGCSGLGHPIQLDPNQKTPENSKSLNAVYPRAGSKPPSCPAPGPTGAASIVPSVPGMALDLSQIPTKELDRFIQDHLKPSPQFQEQVKKAIDIILRCLHENCVHKASRVSKGGSFGRGTDLRDGCDVELIIFLNCFTDYKDQGPRRAEILDEMRAQLESWWQDQVPSLSLQFPEQNVPEALQFQLVSTALKSWTDVSLLPAFDAVGQLSSGTKPNPQVYSRLLTSGCQEGEHKACFAELRRNFMNIRPVKLKNLILLVKHWYRQVAAQNKGKGPAPASLPPAYALELLTIFAWEQGCRQDCFNMAQGFRTVLGLVQQHQQLCVYWTVNYSTEDPAMRMHLLGQLRKPRPLVLDPADPTWNVGHGSWELLAQEAAALGMQACFLSRDGTSVQPWDVMPALLYQTPAGDLDKFISEFLQPNRQFLAQVNKAVDTICSFLKENCFRNSPIKVIKVVKGGSSAKGTALRGRSDADLVVFLSCFSQFTEQGNKRAEIISEIRAQLEACQQERQFEVKFEVSKWENPRVLSFSLTSQTMLDQSVDFDVLPAFDALGQLVSGSRPSSQVYVDLIHSYSNAGEYSTCFTELQRDFIISRPTKLKSLIRLVKHWYQQCTKISKGRGSLPPQHGLELLTVYAWEQGGKDSQFNMAEGFRTVLELVTQYRQLCIYWTINYNAKDKTVGDFLKQQLQKPRPIILDPADPTGNLGHNARWDLLAKEAAACTSALCCMGRNGIPIQPWPVKAAV | binds |
| Caseinolytic peptidase B protein homolog (CLPB) (protein, UniProt Q9H078 37-707) VTTGSLGEPQWLRVATGGRPGTSPALFSGRGAATGGRQGGRFDTKCLAAATWGRLPGPEETLPGQDSWNGVPSRAGLGMCALAAALVVHCYSKSPSNKDAALLEAARANNMQEVSRLLSEGADVNAKHRLGWTALMVAAINRNNSVVQVLLAAGADPNLGDDFSSVYKTAKEQGIHSLEDGGQDGASRHITNQWTSALEFRRWLGLPAGVLITREDDFNNRLNNRASFKGCTALHYAVLADDYRTVKELLDGGANPLQRNEMGHTPLDYAREGEVMKLLRTSEAKYQEKQRKREAEERRRFPLEQRLKEHIIGQESAIATVGAAIRRKENGWYDEEHPLVFLFLGSSGIGKTELAKQTAKYMHKDAKKGFIRLDMSEFQERHEVAKFIGSPPGYVGHEEGGQLTKKLKQCPNAVVLFDEVDKAHPDVLTIMLQLFDEGRLTDGKGKTIDCKDAIFIMTSNVASDEIAQHALQLRQEALEMSRNRIAENLGDVQISDKITISKNFKENVIRPILKAHFRRDEFLGRINEIVYFLPFCHSELIQLVNKELNFWAKRAKQRHNITLLWDREVADVLVDGYNVHYGARSIKHEVERRVVNQLAAAYEQDLLPGGCTLRITVEDSDKQLLKSPELPSPQAEKRLPKLRLEIIDKDSKTRRLDIRAPLHPEKVCNTI | binds |
| Corrinoid adenosyltransferase (MMAB) (protein, UniProt Q96EY8 33-250) QSRGPQGVEDGDRPQPSSKTPRIPKIYTKTGDKGFSSTFTGERRPKDDQVFEAVGTTDELSSAIGFALELVTEKGHTFAEELQKIQCTLQDVGSALATPCSSAREAHLKYTTFKAGPILELEQWIDKYTSQLPPLTAFILPSGGKISSALHFCRAVCRRAERRVVPLVQMGETDANVAKFLNRLSDYLFTLARYAAMKEGNQEKIYMKNDPSAESEGL | binds |
| Thioredoxin-dependent peroxide reductase, mitochondrial (PRDX3) (protein, UniProt P30048 62-256) APAVTQHAPYFKGTAVVNGEFKDLSLDDFKGKYLVLFFYPLDFTFVCPTEIVAFSDKANEFHDVNCEVVAVSVDSHFSHLAWINTPRKNGGLGHMNIALLSDLTKQISRDYGVLLEGSGLALRGLFIIDPNGVIKHLSVNDLPVGRSVEETLRLVKAFQYVETHGEVCPANWTPDSPTIKPSPAASKEYFQKVNQ | binds |
